pIC50: −log10 of the molar value. Structures can show the parent of a compound that is named as a salt.
Biological target: sigma receptor (guinea pig brain crude membrane fraction)
Assay: Sigma receptor binding assay (3H-DTG)
Details: inhibition of 3H-DTG binding to guinea pig brain crude membrane fraction, 25° C., 1 hour
Description: Sigma Receptor Binding Assay
(1) Preparation of Receptor
The receptor was prepared by the following procedure according to the method of Weber et al. (Proc. Natl. Acad. Sci. 83, 8784-8788, 1986). Ten male guinea pigs (Crj, Hartley, from Charles River Japan, Inc.) (body weight: 234 g to 260 g) were decapitated, bled and died. The brain was immediately taken out, homogenized with 50 mM Tris-HCl (pH 7.4) in an amount ten times larger than the brain using a Teflon homogenizer and was centrifuged at a rate of 50000×g at 4° C. for 20 minutes. The washing procedure was repeated once more under the same conditions, and the resulting crude membrane fraction was subjected to the assay.
In an assay tube (Daiichi Tube, from DRL) were incubated 0.1 mL of a solution of the test compound, 0.3 mL of a 50 mM Tris-HCl buffer (pH 7.4), 0.1 mL of ^3H-DTG solution (3.2 nM) and 0.5 mL of the receptor (guinea pig brain crude membrane fraction, 5 mg tissue) at 25° C. for 1 hour. After incubation, the mixture was filtrated using a filter paper (GF/B, from Whatman) which had been treated with 0.3% ethyleneimine. The filter paper was transferred to a vial for radioactivity measurement, mixed with 5 mL of a liquid scintillator (Atomlight, from PACKARD), and the radioactivity on the filter was determined by a liquid scintillation counter (Model 1500, from PACKARD) for 2 minutes. […]

COc1cc2c(cc1OC)C(=O)C(CC1CCN(Cc3ccccc3)CC1)C2 (stereo not shown) [Control, 1-benzyl-4-[(5,6-dimethoxy-1-indanon)-2-yl]methylpiperidine hydrochloride, reference compound]
pIC50: 7.73
